Reference: patent publication US6716822B2, “Therapeutic agent for ischemia which inhibits apoptosis under ischemic condition” (priority 2000, dated 2004)
At least one structure is not confirmed: it was looked up by name or label, or the drawing left a doubt.

Test system: Sprague-Dawley rats
Assay: Effect of antibiotics on ischemic cells: rat left anterior descending artery ligature, infarct/ischemic area by Evans blue/TTC staining
Assay type: in vivo
Details: 45 mg/kg peritoneally, LAD ligature, versus control

Q: With `CN[C@@H]1[C@@H](O)[C@@H](O[C@@H]2[C@@H](O)[C@H](O[C@H]3O[C@H]([C@@H](C)O)[C@@H](O)[C@H](O)[C@H]3N)[C@@H](N)C[C@H]2N)OC[C@]1(C)O` [geneticin] as the molecule, how does the “Infarct area (IS), in words” value read?
A: Its value is “reduced”.
